Results are given in words; binding and its absence hold for the method and conditions named. Binding seen in cells or lysates may run through a third protein.
Molecular target: Dkk3-His tagged, Q9QUN9
Assay: pull-down; His-tag pull-down (MagneHis Protein Purification System, nickel magnetic beads); Sca-1+ cells treated with Dkk3-His tagged, Dkk3-His pulled down from the cell lysate, receptors detected by immunoblot; only the target purified
Conditions: remark: other sources report otherwise

B1: Kremen1, endogenous in Sca-1+ VPCs, Q99N43 20-473 (receptor)
chain: ARPAPGPRSGPECFTANGADYRGTQSWTALQGGKPCLFWNETFQHPYNTLKYPNGEGGLGEHNYCRNPDGDVSPWCYVAEHEDGVYWKYCEIPACQMPGNLGCYKDHGNPPPLTGTSKTSNKLTIQTCISFCRSQRFKFAGMESGYACFCGNNPDYWKHGEAASTECNSVCFGDHTQPCGGDGRIILFDTLVGACGGNYSAMAAVVYSPDFPDTYATGRVCYWTIRVPGASRIHFNFTLFDIRDSADMVELLDGYTHRVLVRLSGRSRPPLSFNVSLDFVILYFFSDRINQAQGFAVLYQATKEEPPQERPAVNQTLAEVITEQANLSVSAAHSSKVLYVITPSPSHPPQTAPGSHSWAPSVGANSHRVEGWTVYGLATLLILTVTAVVAKILLHVTFKSHRVPASGDLRDCRQPGASGDIWTIFYEPSTTISIFKKKLKGQSQQDDRNPLVSD
binding: no binding
